{"source": "PubChem BioAssay AID504804 (Drosophila RNAi Screening Center, 2011)", "test": "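dsRNAs that improve Kc cell survival under doxorubicin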 (primary screen)", "system": "Drosophila Kc cells", "reagents": "long dsRNA against Drosophila genes, 0.5 µg dsRNA per well", "time to read-out": "96 h (48 h knock-down, then 48 h drug)", "conditions": "doxorubicin 5 µg/ml for 48 h, added 48 h after dsRNA", "read-out": "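Viability measured as cellular ATP by luminescence after 48 h knock-down then 48 h doxorubicin at 5 µg/ml; unnormalised plate counts for each replicate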", "direction": "raw ATP luminescence: higher = more viable cells, protection from doxorubicin", "hit rule": "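Active when both duplicate wells lie at least 2 SD above the plate mean and protection is confirmed by rescreening and independent dsRNAs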", "note": "The deposit covers about 19,000 reagents; below is a random part of those with a known target gene and a result. Of all reagents, 47 (0.25%) were called active. 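Signals are raw, not normalised; exact z-scores behind calls not deposited; actives needed confirmation, so some wells reaching 2 SD are inactive.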"}
{"Gene":"Or59c (GeneID 37716)","amplicon":"DRSC04633","raw ATP luminescence, replicate 1":40137,"raw ATP luminescence, replicate 2":52337,"activity call":"inactive"}
{"Gene":"RagA-B (GeneID 41071)","amplicon":"DRSC14450","raw ATP luminescence, replicate 1":39363,"raw ATP luminescence, replicate 2":21997,"activity call":"inactive"}
{"Gene":"Odc2 (GeneID 35767)","amplicon":"DRSC07483","raw ATP luminescence, replicate 1":40587,"raw ATP luminescence, replicate 2":77200,"activity call":"inactive"}
{"Gene":"CG12071 (GeneID 43660)","amplicon":"DRSC14471","raw ATP luminescence, replicate 1":12230,"raw ATP luminescence, replicate 2":11730,"activity call":"inactive"}
{"Gene":"wit (GeneID 44096)","amplicon":"DRSC08741","raw ATP luminescence, replicate 1":53713,"raw ATP luminescence, replicate 2":44513,"activity call":"inactive"}
{"Gene":"modSP (GeneID 42032)","amplicon":"DRSC16726","raw ATP luminescence, replicate 1":69660,"raw ATP luminescence, replicate 2":55880,"activity call":"inactive"}
{"Gene":"modSP (GeneID 42032)","amplicon":"DRSC16857","raw ATP luminescence, replicate 1":79700,"raw ATP luminescence, replicate 2":61810,"activity call":"inactive"}
{"Gene":"prel (GeneID 35969)","amplicon":"DRSC07271","raw ATP luminescence, replicate 1":62567,"raw ATP luminescence, replicate 2":68013,"activity call":"inactive"}
{"Gene":"Klc (GeneID 39445)","amplicon":"DRSC11203","raw ATP luminescence, replicate 1":36120,"raw ATP luminescence, replicate 2":33907,"activity call":"inactive"}
{"Gene":"slp1 (GeneID 33607)","amplicon":"DRSC00835","raw ATP luminescence, replicate 1":96257,"raw ATP luminescence, replicate 2":66477,"activity call":"inactive"}

Next part (4 carried over from the part before).
{"Gene":"modSP (GeneID 42032)","amplicon":"DRSC16857","raw ATP luminescence, replicate 1":79700,"raw ATP luminescence, replicate 2":61810,"activity call":"inactive"}
{"Gene":"prel (GeneID 35969)","amplicon":"DRSC07271","raw ATP luminescence, replicate 1":62567,"raw ATP luminescence, replicate 2":68013,"activity call":"inactive"}
{"Gene":"Klc (GeneID 39445)","amplicon":"DRSC11203","raw ATP luminescence, replicate 1":36120,"raw ATP luminescence, replicate 2":33907,"activity call":"inactive"}
{"Gene":"slp1 (GeneID 33607)","amplicon":"DRSC00835","raw ATP luminescence, replicate 1":96257,"raw ATP luminescence, replicate 2":66477,"activity call":"inactive"}
{"Gene":"Fmr1 (GeneID 37528)","amplicon":"DRSC16674","raw ATP luminescence, replicate 1":46263,"raw ATP luminescence, replicate 2":46533,"activity call":"inactive"}
{"Gene":"CG14453 (GeneID 40484)","amplicon":"DRSC11710","raw ATP luminescence, replicate 1":53667,"raw ATP luminescence, replicate 2":56630,"activity call":"inactive"}
{"Gene":"COX7B (GeneID 50266)","amplicon":"DRSC10895","raw ATP luminescence, replicate 1":35200,"raw ATP luminescence, replicate 2":22840,"activity call":"inactive"}
{"Gene":"CG32221 (GeneID 317924)","amplicon":"DRSC09638","raw ATP luminescence, replicate 1":62700,"raw ATP luminescence, replicate 2":60410,"activity call":"inactive"}
{"Gene":"ND-B14.5AL (GeneID 40477)","amplicon":"DRSC11795","raw ATP luminescence, replicate 1":57697,"raw ATP luminescence, replicate 2":45000,"activity call":"inactive"}
{"Gene":"CG13972 (GeneID 43307)","amplicon":"DRSC14715","raw ATP luminescence, replicate 1":42160,"raw ATP luminescence, replicate 2":52410,"activity call":"inactive"}
{"Gene":"CG14322 (GeneID 42124)","amplicon":"DRSC14801","raw ATP luminescence, replicate 1":18830,"raw ATP luminescence, replicate 2":22820,"activity call":"inactive"}
{"Gene":"Bet1 (GeneID 40094)","amplicon":"DRSC10088","raw ATP luminescence, replicate 1":68293,"raw ATP luminescence, replicate 2":68053,"activity call":"inactive"}
{"Gene":"Bka (GeneID 46032)","amplicon":"DRSC02757","raw ATP luminescence, replicate 1":30030,"raw ATP luminescence, replicate 2":49277,"activity call":"inactive"}
{"Gene":"CG3847 (GeneID 31577)","amplicon":"DRSC17444","raw ATP luminescence, replicate 1":2.04e5,"raw ATP luminescence, replicate 2":2.11e5,"activity call":"inactive"}
{"Gene":"Acer (GeneID 34189)","amplicon":"DRSC01852","raw ATP luminescence, replicate 1":89993,"raw ATP luminescence, replicate 2":78737,"activity call":"inactive"}
{"Gene":"CG34263 (GeneID 5740488)","amplicon":"DRSC07866","raw ATP luminescence, replicate 1":1.59e5,"raw ATP luminescence, replicate 2":1.73e5,"activity call":"inactive"}
{"Gene":"Dus4 (GeneID 35179)","amplicon":"DRSC02066","raw ATP luminescence, replicate 1":96487,"raw ATP luminescence, replicate 2":79203,"activity call":"inactive"}
{"Gene":"CG32815 (GeneID 318224)","amplicon":"DRSC18177","raw ATP luminescence, replicate 1":72880,"raw ATP luminescence, replicate 2":52470,"activity call":"inactive"}
{"Gene":"pen-2 (GeneID 251430)","amplicon":"DRSC05722","raw ATP luminescence, replicate 1":1.90e5,"raw ATP luminescence, replicate 2":1.44e5,"activity call":"inactive"}
{"Gene":"CG13557 (GeneID 37717)","amplicon":"DRSC04195","raw ATP luminescence, replicate 1":60473,"raw ATP luminescence, replicate 2":63147,"activity call":"inactive"}
{"Gene":"Scsalpha1 (GeneID 38447)","amplicon":"DRSC08698","raw ATP luminescence, replicate 1":56543,"raw ATP luminescence, replicate 2":45977,"activity call":"inactive"}
{"Gene":"nsr (GeneID 37577)","amplicon":"DRSC04427","raw ATP luminescence, replicate 1":76147,"raw ATP luminescence, replicate 2":59097,"activity call":"inactive"}
